Results deposited as PubChem BioAssay AID1259298 (Sanger Institute, 2017)
Screen: 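Kinome knock-downs lethal on their own or synergising with anchor drugs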 (primary screen). Cell system: HT55 human colorectal cancer cell line. Reagents: siRNA pool against human genes. Conditions: anchor drug BYL719 1 µM, cetuximab 5 µg/ml or trametinib 10 nM, or DMSO vehicle alone. Measured: 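Mean viability over replicates versus non-targeting pool, a robust z-score without drug, and per-drug synergy scores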. Reading the numbers: robust z-score, knock-down alone: higher = more cells remaining; low means essential gene; viability vs control pool, no drug: higher = more viable cells; synergy score with BYL719 and synergy score with cetuximab and synergy score with trametinib: higher = stronger synthetic lethality with the drug. Hit rule: 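Essential when the robust z-score for knock-down alone with DMSO is below -3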. Calls: active = essential (knock-down alone); inactive = no change alone.
The deposit covers 794 reagents; shown is a part drawn at random. 20 of all reagents (2.5%) count as active. 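Calls rest only on the knock-down-alone score; drug synergy scores played no part in them.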 Entries without a mark were called inactive. No viability above 1 is reported: the scale is capped. Not stated in the record: the amount of reagent, the time to read-out.

gene knocked down | robust z-score, knock-down alone | viability vs control pool, no drug (fraction) | synergy score with BYL719 | synergy score with cetuximab | synergy score with trametinib
CDKN2C (cyclin dependent kinase inhibitor 2C) | 0.58 | 1 | -0.16 | 0.0143 | 0.112
CSNK1G2 (casein kinase 1 gamma 2) | 0.58 | 1 | -0.21 | -0.0773 | -0.0745
PRKAA2 (protein kinase AMP-activated catalytic subunit alpha 2) | 0.58 | 1 | -0.0843 | -0.106 | 0.0788
ITPKB (inositol-trisphosphate 3-kinase B) | 0.58 | 1 | -0.231 | -0.043 | -0.0697
WHR1 (winged helix repair factor 1) | 0.58 | 1 | -0.272 | -0.0408 | 0.0839
WNK2 (WNK lysine deficient protein kinase 2) | 0.58 | 1 | -0.117 | -0.211 | -0.172
STK16 (serine/threonine kinase 16) | 0.58 | 1 | -0.227 | -0.211 | -0.161
RPS6KA3 (ribosomal protein S6 kinase A3) | 0.58 | 1 | -0.124 | -0.211 | -0.0776
ULK2 (unc-51 like autophagy activating kinase 2) | 0.58 | 1 | -0.164 | -0.0644 | -0.0169
TGFBR3 (transforming growth factor beta receptor 3) | 0.58 | 1 | -0.272 | -0.123 | -0.138
PKMYT1 (protein kinase, membrane associated tyrosine/threonine 1) | -0.0828 | 0.948 | -0.169 | -0.136 | 0.0177
EFNA4 (ephrin A4) | 0.58 | 1 | -0.233 | 0.0372 | 0.162
CDC42BPB (CDC42 binding protein kinase beta) | 0.58 | 1 | -0.2 | -0.211 | -0.0669
FGFR1 (fibroblast growth factor receptor 1) | 0.58 | 1 | -0.272 | -0.211 | -0.0842
MARK1 (microtubule affinity regulating kinase 1) | 0.58 | 1 | -0.234 | -0.143 | -0.0288
IP6K1 (inositol hexakisphosphate kinase 1) | 0.58 | 1 | -0.247 | -0.0709 | -0.0228
PRKACB (protein kinase cAMP-activated catalytic subunit beta) | 0.58 | 1 | -0.167 | -0.111 | 0.00858
CDKL1 (cyclin dependent kinase like 1) | 0.58 | 1 | -0.16 | -0.152 | 0.0596
GRK1 (G protein-coupled receptor kinase 1) | 0.58 | 1 | -0.246 | -0.211 | -0.368
RIPK3 (receptor interacting serine/threonine kinase 3) | 0.58 | 1 | -0.0815 | -0.205 | -0.0603
MYO3A (myosin IIIA) | -1.45 | 0.841 | -0.0558 | -0.303 | -0.135
TAB1 (TGF-beta activated kinase 1 (MAP3K7) binding protein 1) | 0.58 | 1 | -0.241 | -0.153 | -0.0761
TNK1 (tyrosine kinase non receptor 1) | 0.58 | 1 | -0.223 | -0.157 | -0.0299
ELF3 (E74 like ETS transcription factor 3) | 0.58 | 1 | -0.106 | 0.028 | 0.0457
CLK1 (CDC like kinase 1) | 0.58 | 1 | -0.272 | -0.211 | -0.00791
PRP4K (pre-mRNA processing factor kinase PRP4K) | -0.0487 | 0.951 | -0.0459 | -0.0851 | 0.0887
LMTK1 (lemur tail kinase 1) | 0.58 | 1 | -0.259 | 0.0138 | -0.116
CDK14 (cyclin dependent kinase 14) | 0.58 | 1 | -0.193 | -0.211 | -0.0807

Next part (9 carried over from the part before).
gene knocked down | robust z-score, knock-down alone | viability vs control pool, no drug (fraction) | synergy score with BYL719 | synergy score with cetuximab | synergy score with trametinib
RIPK3 (receptor interacting serine/threonine kinase 3) | 0.58 | 1 | -0.0815 | -0.205 | -0.0603
MYO3A (myosin IIIA) | -1.45 | 0.841 | -0.0558 | -0.303 | -0.135
TAB1 (TGF-beta activated kinase 1 (MAP3K7) binding protein 1) | 0.58 | 1 | -0.241 | -0.153 | -0.0761
TNK1 (tyrosine kinase non receptor 1) | 0.58 | 1 | -0.223 | -0.157 | -0.0299
ELF3 (E74 like ETS transcription factor 3) | 0.58 | 1 | -0.106 | 0.028 | 0.0457
CLK1 (CDC like kinase 1) | 0.58 | 1 | -0.272 | -0.211 | -0.00791
PRP4K (pre-mRNA processing factor kinase PRP4K) | -0.0487 | 0.951 | -0.0459 | -0.0851 | 0.0887
LMTK1 (lemur tail kinase 1) | 0.58 | 1 | -0.259 | 0.0138 | -0.116
CDK14 (cyclin dependent kinase 14) | 0.58 | 1 | -0.193 | -0.211 | -0.0807
EXOSC10 (exosome component 10) | -0.299 | 0.931 | -0.0708 | -0.0701 | -0.0224
CDKN2D (cyclin dependent kinase inhibitor 2D) | -1.22 | 0.859 | -0.207 | -0.102 | 0.104
COMMD3 (COMM domain containing 3) | -0.0339 | 0.952 | -0.307 | -0.161 | -0.0528
CDKL4 (cyclin dependent kinase like 4) | 0.448 | 0.99 | -0.0269 | 0.0292 | 0.171
DCLK2 (doublecortin like kinase 2) | -0.772 | 0.894 | -0.176 | -0.0819 | -0.0616
BRD3 (bromodomain containing 3) | 0.58 | 1 | -0.272 | -0.211 | 0.0969
ACVR1B (activin A receptor type 1B) | 0.58 | 1 | -0.215 | -0.0997 | -0.0716
TP53BP1 (tumor protein p53 binding protein 1) | 0.58 | 1 | -0.272 | -0.112 | -0.034
NEK2 (NIMA related kinase 2) | 0.58 | 1 | -0.166 | -0.0485 | 0.027
MAPKAPK3 (MAPK activated protein kinase 3) | -3.1 (active) | 0.712 | -0.22 | -0.0895 | -0.0701
COQ8B (coenzyme Q8B) | -0.125 | 0.945 | -0.0661 | 0.0919 | 0.0906
FBXW7 (F-box and WD repeat domain containing 7) | 0.58 | 1 | -0.272 | -0.111 | -0.0409
CNOT1 (CCR4-NOT transcription complex subunit 1) | -0.106 | 0.946 | -0.0453 | -0.0839 | 0.236
CAMK1D (calcium/calmodulin dependent protein kinase ID) | 0.58 | 1 | -0.121 | -0.106 | 0.0474
PDPK1 (3-phosphoinositide dependent protein kinase 1) | 0.235 | 0.973 | 0.0773 | 0.0278 | 0.181
AURKC (aurora kinase C) | 0.58 | 1 | -0.139 | -0.139 | -0.034
CDK1 (cyclin dependent kinase 1) | 0.58 | 1 | -0.272 | -0.211 | -0.237
DYRK3 (dual specificity tyrosine phosphorylation regulated kinase 3) | 0.58 | 1 | -0.272 | -0.196 | -0.0516
EGFR (epidermal growth factor receptor) | -1.69 | 0.822 | -0.0212 | -0.197 | 0.00534
PIP5K1B (phosphatidylinositol-4-phosphate 5-kinase type 1 beta) | 0.58 | 1 | -0.166 | -0.134 | 0.0459
LATS2 (large tumor suppressor kinase 2) | 0.58 | 1 | -0.258 | -0.133 | -0.2
CAMKK1 (calcium/calmodulin dependent protein kinase kinase 1) | 0.532 | 0.996 | -0.25 | -0.102 | 0.00402
HIPK2 (homeodomain interacting protein kinase 2) | 0.58 | 1 | -0.233 | -0.034 | 0.182
DCLK3 (doublecortin like kinase 3) | 0.58 | 1 | -0.096 | -0.148 | -0.0785
GUK1 (guanylate kinase 1) | 0.58 | 1 | -0.114 | -0.115 | 0.056
ROCK1 (Rho associated coiled-coil containing protein kinase 1) | 0.58 | 1 | -0.2 | -0.211 | -0.145
SRGAP3 (SLIT-ROBO Rho GTPase activating protein 3) | 0.58 | 1 | -0.198 | -0.0723 | 0.0748
WT1 (WT1 transcription factor) | 0.58 | 1 | -0.193 | -0.211 | -0.194
JAK1 (Janus kinase 1) | 0.371 | 0.984 | -0.281 | 0.00108 | -0.0185
OXSR1 (oxidative stress responsive kinase 1) | 0.58 | 1 | -0.159 | -0.165 | -0.157
PFKP (phosphofructokinase, platelet) | -0.695 | 0.9 | -0.127 | -0.0461 | 0.0111
MAP3K12 (mitogen-activated protein kinase kinase kinase 12) | 0.58 | 1 | 0.014 | -0.0851 | 0.0705
MOK (MOK protein kinase) | 0.156 | 0.967 | -0.167 | -0.238 | 0.0253
GSK3B (glycogen synthase kinase 3 beta) | 0.58 | 1 | -0.272 | -0.211 | -0.155
FYN (FYN proto-oncogene, Src family tyrosine kinase) | 0.136 | 0.965 | -0.083 | 0.00928 | 0.0106
